Measurements published in patent US5986131A, “RXR selective ligands” (Hoffmann-La Roche Inc., priority 1997, dated 1999).
At least one read-out could not be matched to a standard name with certainty.

Tested on: human sebaceous cells
Assay: Antiproliferative activity on human sebocytes in vitro
Type: cell-based
Procedure: Sebaceous cells were isolated from adult human sebaceous glands by a combination of enzymatic and mechanical methods (Doran et al., 1991). The cells were cultured in Iscove's medium containing 10% fetal calf serum and 4 μg/ml dexamethasone on a layer of growth-arrested 3T3 mouse fibroblasts. Cells were plated in medium without the test compound and then given test compound in fresh medium 24-48 hours after the initial plating. The cultures were given fresh medium, containing the test compound, every 48 hours. On the day of harvesting, the cultures were rinsed with 0.03% EDTA in PBS, to remove only the 3T3 fibroblasts. followed by incubation in 0.05% trypsin/0.03% EDTA. The cells were suspended, mixed vigorously to prepare a single cell suspension and counted in a hemocytometer.
Stock solutions of compounds were made up as 10^-2 M solutions in 100% DMSO and stored at -20° C. in the dark. Compounds in solution were brought to room temperature and used by diluting directly into complete medium to the appropriate concentration.
The compounds of Example 12, Example 2, and Example 4 were tested for their effects on inhibiting the proliferation of first passage human sebaceous cells in vitro after 10 days of exposure to drug.

| Structure (SMILES) | IC50 (first passage cells, 10 days of exposure, read-out: Inhibition of human sebaceous cell proliferation in vitro IC50) [nM] | suppression of sebaceous cell growth (maximum of dose response, 14400 min) |
| --- | --- | --- |
| CC1=C(/C=C/C(C)=C(Br)\C=C\C(C)=C\C(=O)O)C(C)(C)CCC1 [Example 2, (All-E)-6-Bromo-3,7-dimethyl-9-(2,6,6-trimethyl-1-cyclohexen-1-yl)-2,4,6,8-nonatetraenoic acid] | 100 | – |
| CC1=C(/C=C/C2=C(/C=C/C(C)=C/C(=O)O)CCCC2)C(C)(C)CCC1 [Example 4, (2E,4E)-3-Methyl-5-(2-((E)-2(2,6,6-trimethyl-1-cyclohexen-1-yl)ethenyl)-1-cyclohexen-1-yl)-2,4-pentadienoic acid] | – | 30-40% |
